Source: patent publication US20240331158A1, “CELL PAINTING AND ANALYSIS IN 3D CELLULAR MODELS” (priority 2023, published 2024)
At least one compound was matched to its structure with a doubt left.

Legend:
4IC tumoroids = test: Lactate secretion assay (Pu MA System, Lactate-Glo); format: cell-based, human; conditions: 1 uM, 12 hours, vs baseline, two-way ANOVA
TU-BcX-4IC tumoroids = test: Library screening of NCI approved anti-cancer drugs: tumoroid integrity/disintegration by nuclear count in projection images (viability/spheroid disintegration assay); conditions: library screen

## C/C=C1\NC(=O)[C@H]2CSSCC/C=C/[C@H](CC(=O)N[C@H](C(C)C)C(=O)N2)OC(=O)[C@H](C(C)C)NC1=O [Romidepsin]
4IC tumoroids
  Lactate secretion in supernatants: statistically significant increases in lactate secretion
TU-BcX-4IC tumoroids
  Efficacy at low concentrations: efficacy at low concentrations
